According to the supplement of paper PMC12823440, “Inhibitors supercharge kinase turnover through native proteolytic circuits” (Nature, 2025):
Structures can show the parent of a compound that is named as a salt. The list shows a part of the results. Hit calls seldom repeat between salt and free forms of one compound.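 Kinases were expressed as nanoluciferase fusions in K562 cells and luminescence was read every 4 h between 2 and 18 h as percent of control, DMSO set to 100% and a positive control to 0%. A time point counts as decreased when the signal drops significantly (2 sigma). The hit call is the authors' own, does not follow from the count of time points alone, and its rule is not shown.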

Protein sequences, listed by entry. Tags and fused reporters are not part of them. Lines headed by an entry give the natural chain unless they say otherwise; changes in a name come on top.
UniProt P48729: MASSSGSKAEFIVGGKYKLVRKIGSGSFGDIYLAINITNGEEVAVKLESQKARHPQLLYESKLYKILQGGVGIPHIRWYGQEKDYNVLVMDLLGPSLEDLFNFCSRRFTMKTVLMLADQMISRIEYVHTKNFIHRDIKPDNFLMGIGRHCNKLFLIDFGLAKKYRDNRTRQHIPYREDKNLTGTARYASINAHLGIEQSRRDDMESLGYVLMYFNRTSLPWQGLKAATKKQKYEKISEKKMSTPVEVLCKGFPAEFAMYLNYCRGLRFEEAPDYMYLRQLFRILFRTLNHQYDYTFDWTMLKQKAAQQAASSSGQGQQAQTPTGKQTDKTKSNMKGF
UniProt P48730: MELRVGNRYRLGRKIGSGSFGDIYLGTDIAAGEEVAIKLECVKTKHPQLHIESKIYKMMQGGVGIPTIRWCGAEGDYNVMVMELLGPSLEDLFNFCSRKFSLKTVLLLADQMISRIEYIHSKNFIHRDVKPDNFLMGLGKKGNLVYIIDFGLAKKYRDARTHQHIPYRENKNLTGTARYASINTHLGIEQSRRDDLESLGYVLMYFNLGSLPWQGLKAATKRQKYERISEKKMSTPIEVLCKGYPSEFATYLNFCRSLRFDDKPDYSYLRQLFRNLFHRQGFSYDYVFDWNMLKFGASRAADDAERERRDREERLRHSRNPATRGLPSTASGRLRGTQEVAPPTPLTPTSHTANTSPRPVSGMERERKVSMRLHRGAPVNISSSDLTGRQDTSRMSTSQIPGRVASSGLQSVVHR
UniProt Q08345: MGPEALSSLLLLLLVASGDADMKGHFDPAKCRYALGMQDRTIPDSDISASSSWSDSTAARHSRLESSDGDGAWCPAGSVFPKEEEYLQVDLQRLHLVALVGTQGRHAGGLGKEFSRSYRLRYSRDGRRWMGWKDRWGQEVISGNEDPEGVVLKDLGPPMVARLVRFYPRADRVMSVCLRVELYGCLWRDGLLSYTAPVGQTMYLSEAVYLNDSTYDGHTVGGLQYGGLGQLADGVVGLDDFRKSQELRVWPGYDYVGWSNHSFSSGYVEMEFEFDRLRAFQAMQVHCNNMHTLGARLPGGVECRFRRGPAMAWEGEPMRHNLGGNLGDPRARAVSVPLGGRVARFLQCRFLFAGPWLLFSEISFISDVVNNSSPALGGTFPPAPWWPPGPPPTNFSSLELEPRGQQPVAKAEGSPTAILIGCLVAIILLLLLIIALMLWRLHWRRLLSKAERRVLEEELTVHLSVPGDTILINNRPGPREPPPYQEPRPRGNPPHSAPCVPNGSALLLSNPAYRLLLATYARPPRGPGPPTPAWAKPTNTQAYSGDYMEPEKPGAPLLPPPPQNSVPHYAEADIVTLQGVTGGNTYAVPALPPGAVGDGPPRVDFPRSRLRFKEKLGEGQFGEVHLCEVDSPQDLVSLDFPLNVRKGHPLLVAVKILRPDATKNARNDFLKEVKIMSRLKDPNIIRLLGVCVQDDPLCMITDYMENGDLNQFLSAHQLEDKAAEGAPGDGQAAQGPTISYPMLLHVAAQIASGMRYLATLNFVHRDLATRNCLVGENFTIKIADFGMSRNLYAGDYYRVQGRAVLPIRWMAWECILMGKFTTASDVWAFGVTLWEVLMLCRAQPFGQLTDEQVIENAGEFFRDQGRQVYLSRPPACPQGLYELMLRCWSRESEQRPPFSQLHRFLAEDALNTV
UniProt Q9Y463, whole entry, looked up: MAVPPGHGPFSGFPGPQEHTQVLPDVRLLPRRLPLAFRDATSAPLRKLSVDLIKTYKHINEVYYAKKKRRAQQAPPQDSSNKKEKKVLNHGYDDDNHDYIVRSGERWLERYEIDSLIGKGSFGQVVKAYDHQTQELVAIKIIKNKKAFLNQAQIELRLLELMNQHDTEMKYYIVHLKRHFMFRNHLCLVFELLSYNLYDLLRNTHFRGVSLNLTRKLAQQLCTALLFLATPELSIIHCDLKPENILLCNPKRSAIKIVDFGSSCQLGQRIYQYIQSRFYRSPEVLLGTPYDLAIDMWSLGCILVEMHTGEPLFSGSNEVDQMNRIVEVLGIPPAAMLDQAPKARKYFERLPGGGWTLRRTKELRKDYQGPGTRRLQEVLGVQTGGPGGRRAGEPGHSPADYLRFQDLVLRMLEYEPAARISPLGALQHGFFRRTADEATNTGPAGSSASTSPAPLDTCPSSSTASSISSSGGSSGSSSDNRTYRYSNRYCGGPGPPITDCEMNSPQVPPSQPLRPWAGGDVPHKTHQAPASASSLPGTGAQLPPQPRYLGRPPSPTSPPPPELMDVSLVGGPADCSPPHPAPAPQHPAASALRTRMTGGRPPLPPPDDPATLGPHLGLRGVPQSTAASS
UniProt Q92630: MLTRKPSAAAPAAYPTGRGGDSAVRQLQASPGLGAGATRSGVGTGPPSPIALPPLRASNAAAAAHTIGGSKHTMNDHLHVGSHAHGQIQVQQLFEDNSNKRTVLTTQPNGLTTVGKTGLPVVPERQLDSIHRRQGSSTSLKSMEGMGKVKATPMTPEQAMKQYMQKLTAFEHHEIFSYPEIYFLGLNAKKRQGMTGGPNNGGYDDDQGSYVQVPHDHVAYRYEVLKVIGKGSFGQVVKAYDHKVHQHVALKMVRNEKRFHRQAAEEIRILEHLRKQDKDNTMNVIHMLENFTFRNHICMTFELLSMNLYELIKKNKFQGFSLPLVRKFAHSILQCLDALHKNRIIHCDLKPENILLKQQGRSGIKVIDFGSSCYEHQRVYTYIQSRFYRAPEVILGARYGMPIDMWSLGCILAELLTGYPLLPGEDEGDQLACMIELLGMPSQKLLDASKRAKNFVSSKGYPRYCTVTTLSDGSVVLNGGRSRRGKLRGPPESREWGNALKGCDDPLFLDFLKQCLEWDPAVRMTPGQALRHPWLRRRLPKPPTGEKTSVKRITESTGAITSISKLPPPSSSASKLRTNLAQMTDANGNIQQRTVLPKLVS

Assays:
Test in all cases: number of time points (of 5) at which kinase-Nluc abundance scored as decreased, DMSO-normalised (count); higher = more persistent destabilization
Conditions in all cases: K562; 2-18 h
[1] = target: CSNK1A1 (UniProt P48729)
[2] = target: CSNK1D (UniProt P48730)
[3] = target: DDR1 (UniProt Q08345)
[4] = target: DYRK1B (UniProt Q9Y463)
[5] = target: DYRK2 (UniProt Q92630)
[6] = target: EGFR (UniProt P00533)
[7] = target: EGFR_G719S (UniProt P00533)
[8] = target: EGFR_G719S_T790M (UniProt P00533)
[9] = target: EGFR_L718V (UniProt P00533)
[10] = target: EGFR_L858R (UniProt P00533)

Measured: number of time points

O=C(/C=C/c1ccc(O)c(O)c1)OC1CC(OC(=O)/C=C/c2ccc(O)c(O)c2)(C(=O)O)CC(O)C1O (stereo not given) [1,3-Dicaffeoylquinic acid] (10 µM)
0: all assays above

COc1cc([N+](=O)[O-])ccc1S(=O)(=O)N1C[C@@H](CN2CCN(c3ccccn3)CC2)[C@H](c2cccc(F)c2)C1 (relative stereo) (10 µM)
0: all assays above

COc1cc(F)c(F)c(Nc2ccc(I)cc2F)c1NS(=O)(=O)C1(C[C@H](O)CO)CC1 [Refametinib] (10 µM)
2: [5]
1: [2] | [10]
0: all other assays above

COc1cc(N2CCN(C)CC2)ccc1Nc1ncc2c(n1)N(C1CCC1)C(=O)N(c1c(C)cccc1C)C2 (2.5 µM)
0: all assays above

C=C(C)C(=O)Nc1cccc(-c2ncnc3[nH]cc(C(=O)OCC)c23)c1 (10 µM)
0: all assays above

COCCOc1ccc(-c2cn(-c3ccccc3)c3nc[nH]c(=O)c23)cc1 (10 µM)
0: all assays above

COc1c(NC(=O)C(=O)c2ccc(OCCN3CCOCC3)c3ccccc23)cc(C(C)(C)C)cc1NS(C)(=O)=O (2.5 µM)
0: all assays above

COc1cccc(-n2c(=O)[nH]c3cc(Cl)n(-c4ccc(-c5cccc(OC)c5O)cc4)c3c2=O)c1 (2.5 µM)
0: all assays above

CNc1nc(Nc2cnn(C3CCN(C4COC4)CC3F)c2Cl)ncc1C(F)(F)F (stereo not given) (10 µM)
0: all assays above

Cc1noc(C)c1-c1ccc(-c2cc(C(N)=O)c(NC(N)=O)s2)c(O[C@H]2CCNC2)c1 (10 µM)
0: all assays above

CC/C=C\C/C=C\C/C=C\CCCCCCCC(=O)O [α-Linolenic acid] (10 µM)
0: all assays above

C[C@@H]1O[C@@H](O[C@H]2[C@H](Oc3cc(O)c4c(=O)cc(-c5ccc(O)cc5)oc4c3)O[C@H](CO)[C@@H](O)[C@@H]2O)[C@H](O)[C@H](O)[C@H]1O [Rhoifolin] (10 µM)
0: all assays above

O=c1cc(O)cc(/C=C/c2ccc(O)c(O)c2)o1 [Hispidin] (10 µM)
0: all assays above

Nc1ncc(-c2cccc(N3CCNCC3)c2)cc1C(=O)Nc1ccncc1 [PKC-iota inhibitor 1] (10 µM)
0: all assays above

Cc1cc(Nc2nc(N[C@@H](C)c3ccc(F)cc3)c(C#N)cc2F)n[nH]1 (10 µM)
4: [5]
0: all other assays above

CC(C)NC(=O)N1CC[C@H](NC2=Nc3cc(F)ccc3N(CC(F)F)c3ccc(Cl)cc32)C1 (10 µM)
0: all assays above

CCN(CC)S(=O)(=O)c1ccc(OC)c(N2CCN(C(=O)c3ccc(F)cc3C(F)(F)F)CC2)c1 (10 µM)
0: all assays above

CC1CCc2nc(N)c(C#N)c(-c3cccnc3)c2C1 (stereo not given) (10 µM)
0: all assays above

O=C(Nc1ccc(F)cc1F)[C@H](NC(=S)Nc1cc(C(F)(F)F)cc(C(F)(F)F)c1)c1ccccc1 (2.5 µM)
0: all assays above

C=CC(=O)Nc1cc2c(Nc3ccc(OCc4ccccn4)c(Cl)c3)ncnc2cc1OCCN1CCOCC1 (10 µM)
1: [7]
5: [3]
0: all other assays above

O=C1c2ccc(Nc3ccc(F)cc3F)cc2CCc2ccc(OC[C@H](O)CO)cc21 [Skepinone-L] (2.5 µM)
0: all assays above

O=C(/C=C/c1ccc(O[C@@H]2O[C@H](CO)[C@@H](O)[C@H](O)[C@H]2O[C@@H]2OC[C@](O)(CO)[C@H]2O)cc1)c1ccc(O)cc1O [Isoliquiritin apioside] (10 µM)
0: all assays above

O=C(O)c1cc(O)ccc1O [2,5-Dihydroxybenzoic acid] (10 µM)
0: all assays above

Cc1cc(Nc2cc3ncccc3c(N[C@@H]3C[C@H]4CC[C@@H](C3)N4CCC#N)n2)n[nH]1 [Izencitinib] (10 µM)
0: all assays above

O=C1Nc2nc(-c3c(O)cccc3OCC3CC3)cc([C@@H]3CCCNC3)c2CO1 [Bay 65-1942 (hydrochloride)] (10 µM)
1: [7]
4: [5]
0: all other assays above

N#CC(c1ccnc(NCCc2cccnc2)n1)c1nc2ccccc2s1 (stereo not given) (10 µM)
0: all assays above

CS(=O)(=O)c1ccc(-c2noc(C(F)(F)F)c2-c2ccccc2)cc1 (10 µM)
0: all assays above

CC(C)(C)c1ccc(S(=O)(=O)Nc2ccc(-n3ccnc3)cc2)cc1 (10 µM)
0: all assays above

C=C(CCC=C(C)C)[C@H]1CC[C@]2(C)[C@@H]1[C@H](O)C[C@@H]1[C@@]3(C)CC[C@H](O[C@@H]4O[C@H](CO)[C@@H](O)[C@H](O)[C@H]4O[C@@H]4O[C@H](CO)[C@@H](O)[C@H](O)[C@H]4O)C(C)(C)[C@@H]3CC[C@]12C [Ginsenoside Rk1] (10 µM)
0: all assays above

CNCc1ccccc1-c1csc([C@@H](C)Nc2nc(C)nc3cc(OC)c(OC)cc23)c1 (2.5 µM)
2: [5]
1: [4] | [10]
3: [8]
0: all other assays above

2 successive compounds out of the list so far, quoted:
CC(C)(C)c1ccc(S(=O)(=O)Nc2ccc(-n3ccnc3)cc2)cc1 (10 µM)
0: all assays above

C=C(CCC=C(C)C)[C@H]1CC[C@]2(C)[C@@H]1[C@H](O)C[C@@H]1[C@@]3(C)CC[C@H](O[C@@H]4O[C@H](CO)[C@@H](O)[C@H](O)[C@H]4O[C@@H]4O[C@H](CO)[C@@H](O)[C@H](O)[C@H]4O)C(C)(C)[C@@H]3CC[C@]12C [Ginsenoside Rk1] (10 µM)
0: all assays above

Later entries.

Cc1c(CN2CCN(S(C)(=O)=O)CC2)sc2c(N3CCOCC3)nc(-c3cnc(N)nc3)nc12 (2.5 µM)
3: [1] | [7]
1: [3] | [6]
0: all other assays above

CC(C)CC1(O)CCN(C(=O)c2ccc(NS(=O)(=O)c3cccc4nccnc34)cc2)CC1 (10 µM)
0: all assays above

Cc1cc(O)c(C(C)C)cc1N=O [Poloxime] (10 µM)
0: all assays above

CNC(=O)Nc1ccc(-c2cc(-c3ccnc(Nc4ccc(C)c(S(=O)(=O)N(C)C)c4)n3)ccn2)cc1 [hSMG-1 inhibitor 11e] (2.5 µM)
1: [1]
4: [5]
0: all other assays above

NCc1ccc(Nc2ncc(F)c(Nc3ccccc3)n2)cc1 (10 µM)
0: all assays above

Nc1ncnc2c1c(-c1ccc(Oc3ccccc3)cc1)nn2C1CCCNC1 (racemic) (2.5 µM)
0: all assays above
